PubChem BioAssay AID1224830 | NIAID, 2016
Here is one part, drawn at random, of about 18,000 deposited reagents. Over the whole deposit, about 2,900 (16%) were called active. 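Calls are made per well; low scores hint the gene aids the LPS response, high scores that it dampens it.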 Repeated entries: four replicate wells of each siRNA pool.

- Assay: 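Regulators of TLR4 signalling towards TNF-alpha in macrophage-like cells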 (primary screen)
- System: human THP-1 monocytic leukaemia cells, TNF dual-luciferase reporter clone, PMA-differentiated to macrophage-like cells
- Reagent: siRNA pool against human genes, 50 nM
- Timing: LPS for 4 h, given about 3 days after siRNA transfection
- Treatment: bacterial LPS (TLR4 ligand), 10 ng/ml
- Detection: 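TNF firefly reporter luminescence divided by renilla, normalised to the plate median, then turned into a robust z-score for each replicate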
- Scale: TNF reporter robust z-score: higher = stronger TNF reporter response to LPS
- Active means: 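Each well counts as active if its z-score is over 2.8 or under -1.5; controls are left without a call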

| gene | TNF reporter robust z-score | outcome |
| --- | --- | --- |
| KIAA0513 | -0.31 | inactive |
| KIAA0513 | -0.5 | inactive |
| KIAA0513 | -0.82 | inactive |
| DRD4 | -0.01 | inactive |
| DRD4 | 0.76 | inactive |
| DRD4 | -0.29 | inactive |
| DRD4 | 1.3 | inactive |
| ARHGAP42 | -0.55 | inactive |
| ARHGAP42 | -0.44 | inactive |
| ARHGAP42 | 1.08 | inactive |
| ARHGAP42 | 1.98 | inactive |
| ESPN | -0.13 | inactive |
| ESPN | -0.11 | inactive |
| ESPN | -0.36 | inactive |
| ESPN | 0.31 | inactive |
| LZIC | 0.08 | inactive |
| LZIC | 0.75 | inactive |
| LZIC | -0.79 | inactive |
| LZIC | 1.08 | inactive |
| APOL2 | -0.28 | inactive |
| APOL2 | 0.98 | inactive |
| APOL2 | 1.51 | inactive |
| TNFSF15 | 0.26 | inactive |
| TNFSF15 | 0.9 | inactive |
| TNFSF15 | 0.46 | inactive |
| TNFSF15 | -0.06 | inactive |
| AUP1 | -0.34 | inactive |
| AUP1 | -0.93 | inactive |
| AUP1 | -1.1 | inactive |
| AUP1 | 0.4 | inactive |
| LGMN | -1.33 | inactive |
| LGMN | 0.42 | inactive |
| LGMN | -0.31 | inactive |
| LGMN | -0.14 | inactive |
| FAM110C | -0.92 | inactive |
| FAM110C | -0.88 | inactive |
| FAM110C | -0.93 | inactive |
| FAM110C | -0.76 | inactive |
| SPINK5 | 3.18 | active |
| SPINK5 | 4.19 | active |
| SPINK5 | 3.12 | active |
| SPINK5 | 2.77 | inactive |
| CAMK2A | -0.12 | inactive |
| CAMK2A | 0.31 | inactive |
| CAMK2A | 0.88 | inactive |
| CAMK2A | -0.58 | inactive |
| CDCP1 | 0.34 | inactive |
| CDCP1 | 0.11 | inactive |
| CDCP1 | -0.01 | inactive |
| ECRG4 | 0.06 | inactive |
| ECRG4 | 0.04 | inactive |
| ECRG4 | 0.28 | inactive |
| ECRG4 | 0.33 | inactive |
| OR3A4P | -1.06 | inactive |
| OR3A4P | -0.99 | inactive |
| OR3A4P | -1.01 | inactive |
| OR3A4P | -0.88 | inactive |
| TAF7 | -0.92 | inactive |
| TAF7 | 0.67 | inactive |
| TAF7 | -0.24 | inactive |
| TAF7 | 1.13 | inactive |
| PPDPFL | 0.1 | inactive |
| PPDPFL | 0.28 | inactive |
| PPDPFL | 0.13 | inactive |
| PPDPFL | 0.76 | inactive |
| SNHG29 | -0.45 | inactive |
| SNHG29 | -0.51 | inactive |
| SNHG29 | -0.43 | inactive |
| SNHG29 | -0.39 | inactive |
| CERK | 2.38 | inactive |
| CERK | -1.12 | inactive |
| CERK | -1.07 | inactive |
| CERK | -0.47 | inactive |
| MEPCE | -1.94 | active |
| MEPCE | -1.89 | active |
| MEPCE | -1.52 | active |
| MEPCE | -1.01 | inactive |
